Data as given in PubChem BioAssay AID1053208 (Peter MacCallum Cancer Centre, 2014)
Aim: 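Synthetic lethal interactions between gene loss and doxorubicin in osteosarcoma cells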 (primary screen). Cell system: mouse osteosarcoma cells, early-passage culture from an engineered mouse model of fibroblastic bone tumour. Reagents: siRNA pool against mouse genes, 40 nM. Duration: about 120 h (48 h before drug, then 72 h with drug). Treatment: doxorubicin 100 nM for 72 h, roughly 30-40% inhibitory dose. Measurement: 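Luminescent ATP signal taken as viability with or without 100 nM doxorubicin for 72 h; mean of two wells set against non-targeting siRNA and turned into robust z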. Scale: viability z-score with doxorubicin and doxorubicin viability vs non-targeting: higher = more viable cells under doxorubicin; viability z-score without drug: higher = more viable cells with knock-down alone; z-score of drug to no-drug ratio: higher = less drug sensitisation by knock-down. Active means: 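Called active if knock-down leaves viability unchanged without drug (z within -2 to 2) but lowers it with doxorubicin (z at or under -2)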.
The whole screen tested about 17,000 reagents; this is an unselected part. In the full data, 788 (4.7%) are marked active. 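Calls rest on z-score classes alone; an extra cut-off of viability at most 70% of control was not applied to them.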

gene knocked down,combined z-score class,viability z-score with doxorubicin,viability z-score without drug,z-score of drug to no-drug ratio,doxorubicin viability vs non-targeting,Outcome
Champ1 (GeneID 101994),no change with or without drug,0.56,-0.17,0.79,0.99,inactive
Ntf3 (GeneID 18205),no change with or without drug,0.34,-0.51,0.79,0.97,inactive
Btbd6 (GeneID 399566),no change with or without drug,1.91,-0.51,2.59,1.11,inactive
Trak1 (GeneID 67095),no change with or without drug,0.9,1.52,0,1.02,inactive
Vps39 (GeneID 269338),no change with or without drug,-0.9,-0.67,-0.34,0.86,inactive
Cyp4a12a (GeneID 277753),no change with or without drug,-0.9,-1.18,0,0.86,inactive
Yipf2 (GeneID 74766),no change with or without drug,1.12,1.85,0,1.04,inactive
Cnot4 (GeneID 53621),no change with or without drug,0.67,0.17,0.67,1,inactive
Gtf2e1 (GeneID 74197),no change with or without drug,1.12,0.84,0.67,1.04,inactive
Pilrb1 (GeneID 170741),no change with or without drug,0.34,-1.35,1.46,0.97,inactive
Twist2 (GeneID 13345),no change with or without drug,-0.45,-1.18,0.45,0.9,inactive
Cyp8b1 (GeneID 13124),no change with or without drug,-0.45,-0.17,-0.22,0.9,inactive
Tsr3 (GeneID 68327),no change with or without drug,0,1.52,-0.9,0.94,inactive
Anxa11 (GeneID 11744),no change with or without drug,-1.12,0.17,-1.12,0.84,inactive
Atp8b3 (GeneID 67331),no change with or without drug,0.22,-0.17,0.45,0.96,inactive
Cc2d1b (GeneID 319965),no change with or without drug,0.9,0.17,0.9,1.02,inactive
Cd302 (GeneID 66205),no change with or without drug,0.34,-0.67,1.01,0.97,inactive
Jsrp1 (GeneID 71912),no change with or without drug,0,-0.84,0.67,0.94,inactive
Cyp2c55 (GeneID 72082),no change with or without drug,1.46,-0.17,1.8,1.07,inactive
Zftraf1 (GeneID 54151),no change with or without drug,0.79,-0.17,1.01,1.01,inactive
Stk38 (GeneID 106504),no change with or without drug,-0.79,-1.69,0.45,0.87,inactive
B4gat1 (GeneID 108902),no change with or without drug,1.57,-1.01,2.59,1.08,inactive
Tcstv2a (GeneID 236546),no change with or without drug,1.12,1.52,0.22,1.04,inactive
Nkain3 (GeneID 269513),no change with or without drug,-0.22,0.34,-0.34,0.92,inactive
Reg4 (GeneID 67709),no change with or without drug,-1.91,0.51,-2.14,0.77,inactive
Mthfsd (GeneID 234814),no change with or without drug,0.45,1.35,-0.34,0.98,inactive
Drd4 (GeneID 13491),no change with or without drug,0,-1.35,1.12,0.94,inactive
Slc22a29 (GeneID 236293),no change with or without drug,0.22,0.17,0.22,0.96,inactive
Lyzl4 (GeneID 69032),high cell count without drug only,0.45,2.19,-0.79,0.98,inactive
Gsto2 (GeneID 68214),no change with or without drug,0.79,1.52,-0.11,1.01,inactive
Kif3b (GeneID 16569),no change with or without drug,-0.79,-0.67,-0.22,0.87,inactive
Sac3d1 (GeneID 66406),high cell count with doxorubicin only,2.59,-0.34,3.15,1.17,inactive
Tnfsf4 (GeneID 22164),no change with or without drug,0.45,1.85,-0.67,0.98,inactive
Or8b35 (GeneID 258413),no change with or without drug,-0.9,-0.67,-0.34,0.86,inactive
Rps9 (GeneID 76846),low cell count with and without drug,-7.31,-8.43,-3.82,0.29,inactive
Klrc2 (GeneID 16642),no change with or without drug,-0.22,-1.35,0.9,0.92,inactive
Sertad3 (GeneID 170742),no change with or without drug,1.35,1.01,0.79,1.06,inactive
Map3k7cl (GeneID 224419),no change with or without drug,0.45,-0.84,1.24,0.98,inactive
Emg1 (GeneID 14791),no change with or without drug,-0.45,0.17,-0.45,0.9,inactive
Rdh16f2 (GeneID 216454),no change with or without drug,0.22,1.18,-0.45,0.96,inactive
Or5v1 (GeneID 258325),low cell count with doxorubicin only,-2.47,0.51,-2.81,0.72,active
Ergic1 (GeneID 67458),no change with or without drug,-0.67,-1.52,0.45,0.88,inactive
Runx1 (GeneID 12394),high cell count without drug only,0.45,2.19,-0.79,0.98,inactive
Dad1 (GeneID 13135),no change with or without drug,-0.67,-1.85,0.79,0.88,inactive
Vash2 (GeneID 226841),no change with or without drug,0.34,0.51,0.11,0.97,inactive
Eif3d (GeneID 55944),low cell count with and without drug,-2.36,-4.22,0.67,0.73,inactive
Postn (GeneID 50706),high cell count without drug only,1.46,2.19,0.11,1.07,inactive
Gpsm3 (GeneID 106512),high cell count without drug only,1.35,2.19,0,1.06,inactive
Patl1 (GeneID 225929),no change with or without drug,0,0.34,-0.11,0.94,inactive
Vasp (GeneID 22323),no change with or without drug,0,-0.34,0.34,0.94,inactive
Sim1 (GeneID 20464),no change with or without drug,-0.11,0.17,-0.11,0.93,inactive
Ighg3 (GeneID 380795),no change with or without drug,-0.67,-0.51,-0.22,0.88,inactive
Wdr1 (GeneID 22388),no change with or without drug,-1.35,-0.84,-0.79,0.82,inactive
Vmn1r4 (GeneID 171194),low cell count with doxorubicin only,-2.25,-0.17,-2.14,0.74,active
Klf7 (GeneID 93691),no change with or without drug,0.79,0.84,0.34,1.01,inactive
Map1s (GeneID 270058),no change with or without drug,0.45,-0.17,0.67,0.98,inactive
Eed (GeneID 13626),no change with or without drug,-0.45,-0.17,-0.22,0.9,inactive
Magea13 (GeneID 75352),no change with or without drug,-0.79,-0.17,-0.56,0.87,inactive
Ctdsp2 (GeneID 52468),no change with or without drug,0.56,0.84,0.11,0.99,inactive
Ces1d (GeneID 104158),no change with or without drug,0.67,-0.17,0.9,1,inactive
Plod3 (GeneID 26433),no change with or without drug,-0.45,-1.52,0.79,0.9,inactive
Syf2 (GeneID 68592),no change with or without drug,-0.9,0,-0.79,0.86,inactive
Ftcd (GeneID 14317),no change with or without drug,0,1.01,-0.56,0.94,inactive

Active calls (from the list above):
gene knocked down,combined z-score class,viability z-score with doxorubicin,viability z-score without drug,z-score of drug to no-drug ratio,doxorubicin viability vs non-targeting,Outcome
Or5v1 (GeneID 258325),low cell count with doxorubicin only,-2.47,0.51,-2.81,0.72,active
Vmn1r4 (GeneID 171194),low cell count with doxorubicin only,-2.25,-0.17,-2.14,0.74,active
